From patent US6800750B1, “Mc1-1 gene regulatory elements and a pro-apoptotic mc1-1 variant” (Dartmouth College, priority 1999, dated 2004) come the findings set out here.

In this assay the target is T1, Elk-1 member of the Ets family (UniProt P19419).
T1 sequence (looked up): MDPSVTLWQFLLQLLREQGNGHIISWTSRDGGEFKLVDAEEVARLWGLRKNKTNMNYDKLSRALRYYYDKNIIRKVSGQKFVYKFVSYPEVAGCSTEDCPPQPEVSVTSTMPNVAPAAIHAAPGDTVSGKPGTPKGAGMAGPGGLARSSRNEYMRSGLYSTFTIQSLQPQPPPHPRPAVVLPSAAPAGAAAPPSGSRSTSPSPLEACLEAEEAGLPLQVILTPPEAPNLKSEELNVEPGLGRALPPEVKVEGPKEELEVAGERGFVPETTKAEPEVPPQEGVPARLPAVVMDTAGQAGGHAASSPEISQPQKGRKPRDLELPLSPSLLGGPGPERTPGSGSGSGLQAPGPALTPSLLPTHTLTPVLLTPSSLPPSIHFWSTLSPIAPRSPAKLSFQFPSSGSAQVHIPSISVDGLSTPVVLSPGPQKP
As to the kind of experiment: EMSA; both proteins in one complex (Complex I) on the Mcl-1 DNA probe, shown by supershift with either antibody.

These are yes or no findings as the source states them, for the method shown. Some entries that bind do so weakly or less than the wild type.

B1: serum response element (SRE) binding factor (SRF) (protein, UniProt P11831 1-508, looked up)
chain: MLPTQAGAAAALGRGSALGGSLNRTPTGRPGGGGGTRGANGGRVPGNGAGLGPGRLEREAAAAAATTPAPTAGALYSGSEGDSESGEEEELGAERRGLKRSLSEMEIGMVVGGPEASAAATGGYGPVSGAVSGAKPGKKTRGRVKIKMEFIDNKLRRYTTFSKRKTGIMKKAYELSTLTGTQVLLLVASETGHVYTFATRKLQPMITSETGKALIQTCLNSPDSPPRSDPTTDQRMSATGFEETDLTYQVSESDSSGETKDTLKPAFTVTNLPGTTSTIQTAPSTSTTMQVSSGPSFPITNYLAPVSASVSPSAVSSANGTVLKSTGSGPVSSGGLMQLPTSFTLMPGGAVAQQVPVQAIQVHQAPQQASPSRDSSTDLTQTSSSGTVTLPATIMTSSVPTTVGGHMMYPSPHAVMYAPTSGLGDGSLTVLNAFSQAPSTMQVSHSQVQEPGGVPQVFLTASSGTVQIPVSAVQLHQMAVIGQQAGSSSNLTELQVVNLDTAHSTKSE
With B1, the binding entry was “binds”.
